Data reported in publication PMC5438655.
These are yes or no findings as the source states them, for the method shown. In cells and extracts the contact can be indirect. Some entries that bind do so weakly or less than the wild type. Sequences can lack the tags named with a protein.

What was measured:
GST Raf-1 [1] = biological target: GST Raf-1 (UniProt P04049); assay: pull-down; GST pull-down with glutathione sepharose from lysates of HEK 293T cells co-expressing bait and prey; 0.5% NP-40, 150 mM NaCl, 10 mM HEPES; 3-4 hours at 4°C; western blot
GST N-Ras = GST N-Ras (UniProt P01111); assay: as above
GST Raf-1 [2] = biological target: GST Raf-1 (UniProt P04049); assay: FRET or BRET; TR-FRET on serially diluted lysates of HEK 293T cells co-expressing the GST-tagged and the Venus-Flag-tagged protein; anti-GST-Terbium antibody as donor, Venus as acceptor; FRET buffer 20 mM Tris pH 7.0, 0.01% Nonidet-P40, 50 mM NaCl

Measured: binding

B1: Venus-Flag Aurora A (protein, UniProt O14965 1-403)
chain: MDRSKENCISGPVKATAPVGGPKRVLVTQQFPCQNPLPVNSGQAQRVLCPSNSSQRIPLQAQKLVSSHKPVQNQKQKQLQATSVPHPVSRPLNNTQKSKQPLPSAPENNPEEELASKQKNEESKKRQWALEDFEIGRPLGKGKFGNVYLAREKQSKFILALKVLFKAQLEKAGVEHQLRREVEIQSHLRHPNILRLYGYFHDATRVYLILEYAPLGTVYRELQKLSKFDEQRTATYITELANALSYCHSKRVIHRDIKPENLLLGSAGELKIADFGWSVHAPSSRRTTLCGTLDYLPPEMIEGRMHDEKVDLWSLGVLCYEFLVGKPPFEANTYQETYKRISRVEFTFPDFVTEGARDLISRLLKHNPSQRPMLREVLEHPWITANSSKPSNCQNKESASKQS
binds: all assays above
